Results taken from patent US11905281B2 (Amgen Inc., priority 2017, dated 2024).
Structures were worked out from names or drawings and are uncertain.

Legend:
[1] = system: Phosphorylation of ERK1/2 in MIA PaCa-2 cells; test: Phospho-ERK1/2 MSD Assay, MIA PaCa-2 (Table 15 conditions: 4 hours compound treatment); details: read-out: p-ERK IC50 (MIA PaCa-2), EGF stimulation
[2] = system: Phosphorylation of ERK1/2 in A549 cells; test: Phospho-ERK1/2 MSD Assay, A549 (Table 15 conditions: 4 hours compound treatment); details: read-out: p-ERK IC50 (A549), EGF stimulation

- IC50 [1]: 8.2 µM
- IC50 [2]: > 100 µM
Compound: C=CC(=O)N1CCN(c2snc3c(F)c(-c4cc(O)cc5ccccc45)c(Cl)cc23)[C@@H](CCO)C1
